Reference: PubChem BioAssay AID1671190 (National Center for Advancing Translational Sciences (NCATS), 2021)
The campaign covered roughly 580,000 compounds. About 6,100 (1.1%) were called active. Inconclusive results, whose numbers are uncertain, are shown with a selection of clear calls. The call rests on the fitted dose curve; in most records, active means well fitted inhibition curve with a large enough effect; inconclusive means small, poorly fitted or top-dose-only effect, or another doubt; inactive means no such curve, though single readings can be large or run the other way. A potency beside an inconclusive call is a rough fit, not a confirmed value.

Amino acid sequences for entries named in this document (tags omitted). A change or cut given only in a name is not applied to a line headed by its entry.
UniProt P18054: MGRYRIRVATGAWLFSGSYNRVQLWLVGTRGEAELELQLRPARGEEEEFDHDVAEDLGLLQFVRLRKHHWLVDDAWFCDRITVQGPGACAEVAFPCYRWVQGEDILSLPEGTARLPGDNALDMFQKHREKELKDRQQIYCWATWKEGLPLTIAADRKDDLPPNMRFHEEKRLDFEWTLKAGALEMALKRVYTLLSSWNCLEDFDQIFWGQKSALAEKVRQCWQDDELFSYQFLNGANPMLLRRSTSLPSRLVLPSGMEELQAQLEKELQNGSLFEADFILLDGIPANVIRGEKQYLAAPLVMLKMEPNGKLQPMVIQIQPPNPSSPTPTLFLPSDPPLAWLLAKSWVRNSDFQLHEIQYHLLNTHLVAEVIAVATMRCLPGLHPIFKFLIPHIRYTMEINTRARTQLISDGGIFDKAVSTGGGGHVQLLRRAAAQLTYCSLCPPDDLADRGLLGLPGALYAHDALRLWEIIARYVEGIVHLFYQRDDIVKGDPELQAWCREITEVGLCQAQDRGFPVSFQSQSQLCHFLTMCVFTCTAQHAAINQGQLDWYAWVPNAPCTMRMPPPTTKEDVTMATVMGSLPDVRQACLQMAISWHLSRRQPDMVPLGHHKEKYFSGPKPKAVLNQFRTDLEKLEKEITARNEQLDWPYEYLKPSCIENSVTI

Target: Polyunsaturated fatty acid lipoxygenase ALOX12 (Homo sapiens) (UniProt P18054)
Test: Primary qHTS assay for inhibitors of human arachidonate 12S-lipoxygenase (ALOX12): Round 2
Settings: purified 12hLO, xylenol orange hydroperoxide absorbance; activity change, negative = inhibition: at 108 µM (top of the series) unless noted
Procedure, shortened: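 Purified human 12hLO at 150 nM in 25 mM Hepes, 0.01% Triton X-100, pH 7.0, preincubated 15 min at room temperature with compound. Reaction started with 40 uM arachidonic acid, 30 min at room temperature. Hydroperoxide measured by Fe-xylenol orange, 573/405 nm absorbance ratio.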
On the % scale 0 is the no-effect control and ±100 the full control effect; potency means the concentration at half of the fitted maximal effect.

Row | SMILES | Potency | activity change, negative = inhibition
1 | CC1CCN(c2ccccc2NC(=O)c2ccc([N+](=O)[O-])o2)CC1 | inconclusive: 126 µM [inhibitor, single point] | 
2 | N#CC(c1ccncc1)(c1ncc(C(F)(F)F)cc1Cl)N1CCOCC1 (configuration not stated) | active: 44.7 µM | 
3 | COCC(=O)N1CCCc2nc(C)nc(-c3ccc(O)cc3)c2C1 |  | inactive: -3.27% [at 176 µM]
4 | CC(=O)N1N=C(C)CC1c1ccc(OCc2ccccc2)cc1 (configuration not stated) |  | inactive: -7.14%
5 | CCCCN1C(=O)c2[nH]nc(-c3ccccc3O)c2C1c1ccc(C(C)(C)C)cc1 (configuration not stated) |  | inactive: -7.54%
6 | O=C(O)CN(Cc1ccc(Br)cc1)S(=O)(=O)c1ccc(Cl)cc1 |  | inactive: -17.3%
7 | CCN(CC)C(=O)Cn1nc(-c2ccc(C)cc2)c2ccccc2c1=O | inconclusive: 89.1 µM [inhibitor, single point] | 
8 | O=S(=O)(c1ccc(Cl)cc1)c1cnc(-c2cccnc2)nc1-c1ccccc1 | inconclusive: 112 µM [inhibitor, single point] | 
9 | CCN(CC)C(=O)CSc1nc2c(sc(=S)n2-c2ccccc2)c(=O)n1Cc1ccco1 | inconclusive: 31.6 µM [inhibitor, partial curve, poor fit] | 
10 | CN(C)C1=NC[C@H](Cc2ccccc2)N1CCc1ccc(F)cc1 | inconclusive: 44.7 µM [inhibitor, partial curve, poor fit] | 
11 | Cc1onc(-c2ccccc2)c1C(=O)N1CCN(S(=O)(=O)c2ccc(Cl)cc2)CC1 | inconclusive: 56.2 µM [inhibitor, single point] | 
12 | O=C(Nc1cccc(C(F)(F)F)c1)N[C@H]1[C@H](O)[C@@H](N2CCCC2)[C@@H]2OC[C@H]1O2 | inconclusive: 25.1 µM [inhibitor, full curve] | 
13 | CC(=O)NCCNc1nc(-c2ccccc2C(F)(F)F)nc2ccccc12 |  | inactive: -12.3%
14 | CCCN1CCC2(Cc3ccccc3CN(C(=O)Cc3ccc(O)cc3)C2)C1 (configuration not stated) | inconclusive: 20 µM [inhibitor, full curve] | 
15 | COc1cc(CNc2nc3c(C)cc(C)cc3s2)ccc1O | inconclusive: 44.7 µM [inhibitor, partial curve, poor fit] | 
16 | O=C1c2ccccc2C2(c3ccccc3)NCCCN12 (configuration not stated) |  | inactive: -14.4%
17 | Cc1ccccc1-c1cc(NCc2ccccc2)ncn1 | inconclusive: 6.31 µM [inhibitor, full curve, poor fit] | 
18 | CCCCn1c(=O)n(CC(O)COc2ccc(OCC)cc2)c(=O)c2c1ncn2CCOC (configuration not stated) |  | inactive: -2.82%
19 | NC(=S)Nc1nc2ccccc2[nH]c1=O | inconclusive: 11.2 µM [inhibitor, full curve, poor fit] | 
20 | CNc1sc(C(C)=O)cc1C | active: 12.6 µM | 
21 | CCC1(O)CCC12CCN(C(=O)c1cccs1)CC2 (configuration not stated) |  | inactive: 39.6%
22 | O=C1c2cc([N+](=O)[O-])ccc2-c2cc(Cl)c(NC(=O)C(F)(F)F)cc21 | inconclusive: 112 µM [inhibitor, partial curve, poor fit] | 
23 | CCC(=O)N1CCc2cc(Br)cc(S(=O)(=O)N3CCC(C(=O)Nc4ccccc4CC)CC3)c21 | inconclusive: 50.1 µM [inhibitor, partial curve, poor fit] | 

Row | SMILES | Potency | activity change, negative = inhibition
24 | Cc1nc(-c2ccccc2)sc1-c1ccc(SCC(=O)Nc2cccc(C(F)(F)F)c2)nn1 |  | inactive: -21.2%
25 | O=C(CSc1ncnc2ccccc12)N(C1CCCC1)C1CCS(=O)(=O)C1 (configuration not stated) |  | inactive: 12.6%
26 | CS(=O)(=O)Nc1cccc(-c2ccc3ncnc(NCc4cccnc4)c3c2)c1 | inconclusive: 79.4 µM [inhibitor, partial curve, poor fit] | 
27 | CC(NC(=O)Cn1nc(-c2ccc(F)cc2)oc1=O)c1ccc2c(c1)CCCC2 (configuration not stated) | inconclusive: 35.5 µM [inhibitor, partial curve, poor fit] | 
28 | COc1cccc2cc(C(C)N(CCCN3CCOCC3)C(=S)Nc3cc(C)cc(C)c3)oc12 (configuration not stated) | inconclusive: 126 µM [inhibitor, single point] | 
29 | CC(C)C[C@H](NC(=O)OC(C)(C)C)C(=O)N1CCC(C(=O)N[C@@H](Cc2c[nH]c3ccccc23)C(=O)O)CC1 | inconclusive: 50.1 µM [inhibitor, partial curve, poor fit] | 
30 | c1ccc(NC2=Nc3cccc4cccc2c34)cc1 |  | inactive: -9.07%
31 | CSc1ccc(/C=N/N2CCN(Cc3ccc(Cl)cc3)CC2)cc1 |  | inactive: -10.4%
32 | COc1ccccc1CNC(=O)c1cc(-c2ccccc2)n(Cc2cc(C)no2)n1 | inconclusive: 44.7 µM [inhibitor, partial curve, poor fit] | 
33 | CCCNC(=O)NCCn1c(C)cnc1-c1ccncc1 | inconclusive: 6.31 µM [inhibitor, full curve, poor fit] | 
34 | CCn1cc(Cl)c(C(=O)N2N=C(c3ccc4ccccc4c3)CC2c2ccccc2O)n1 (configuration not stated) | inconclusive: 50.1 µM [inhibitor, single point] | 
35 | Oc1c(Cl)cccc1C=Nc1cc(C(F)(F)F)ccc1Oc1ccc(Cl)cc1 | inconclusive: 44.7 µM [inhibitor, partial curve, poor fit] | 
36 | CCC(=O)Nc1c2c(nn1-c1ccccc1C)CSC2 |  | inactive: -1.16%
37 | CNC(=S)N/N=C(\C)c1ccc2c(c1)OCCO2 | inconclusive: 28.2 µM [inhibitor, partial curve] | 
38 | COc1cc(F)ccc1-c1csc(C(O)c2ccc(F)c(F)c2)n1 (configuration not stated) | inconclusive: 56.2 µM [inhibitor, partial curve, poor fit] | 
39 | COn1c2c(c3c4nonc4ccc31)CCCC2 | inconclusive: 22.4 µM [inhibitor, partial curve] | 
40 | CCOC(=O)C(=N/O)/C(C)=N/NC(C)=O |  | inactive: 22.6%
41 | CCOc1cc(C(=O)Nc2ccc(S(=O)(=O)Nc3nnc(CC)s3)cc2)cc(OCC)c1OCC |  | inactive: 0%
42 | N#Cc1cnn(-c2ccccc2)c1NC(=O)CN1CCOCC1 | inconclusive: 3.16 µM [inhibitor, full curve, poor fit] | 
43 | CCOC(=O)N1CCC(N2CCN(S(=O)(=O)c3ccc(NC(C)=O)cc3)CC2)CC1 | inconclusive: 0.447 µM [inhibitor, full curve, poor fit] | 
44 | COC(=O)[C@H](CC(C)C)N(Cc1cn(CC2CCCCC2)nn1)S(=O)(=O)c1ccccc1Br | active: 5.62 µM | 
45 | CCc1nnc(-n2nc(C)cc2-c2ccccc2)n1N | inconclusive: 31.6 µM [inhibitor, full curve, poor fit] | 
46 | COc1cccc(Cn2c(=O)c3ccnn3c3ccc(C(=O)NCCCN(C)C)cc32)c1 | inconclusive: 35.5 µM [inhibitor, partial curve] | 

Row | SMILES | Potency | activity change, negative = inhibition
47 | Cc1ccc(C)c(NC(=O)CN2C(=O)NC(C)(c3ccc4c(c3)OCCO4)C2=O)c1 (configuration not stated) | inconclusive: 112 µM [inhibitor, partial curve, poor fit] | 
48 | COc1ccc(C(=O)N2CC(c3nnc(-c4ccncc4)o3)C3(CCOCC3)C2)c(C)c1 (configuration not stated) |  | inactive: 43.9%
49 | CCC[n+]1c(C)sc2c(OC)ccc(OC)c21 | inconclusive: 50.1 µM [inhibitor, partial curve, poor fit] | 
50 | Cc1cc(C)nc(/N=C(\N)Nc2cccc(OCc3ccccc3)c2)n1 | inconclusive: 112 µM [inhibitor, single point] | 
51 | CCOC(=O)c1sc(N)cc1C | inconclusive: 100 µM [inhibitor, single point] | 
52 | CCN(CC)S(=O)(=O)c1ccc(S(=O)(=O)N(CC(=O)Nc2ccccc2)Cc2ccco2)cc1 | inconclusive: 7.94 µM [inhibitor, partial curve, poor fit] | 
53 | CCN1CCN(C(=O)c2ccc(-n3nc(C)c(-c4ccc(F)cc4)c3NC(C)=O)cc2)CC1 |  | inactive: -43.7%
54 | N#Cc1c(-c2cccnc2)c2c([nH]c1=S)CCCC2 | inconclusive: 4.47 µM [inhibitor, full curve, poor fit] | 
55 | CCOC(=O)N1CCN(C(=O)C2CCN(CC3CCCCC3)CC2)CC1 | inconclusive: 7.94 µM [inhibitor, full curve, poor fit] | 
56 | Cc1[nH]c2ccccc2c1[N+](=O)[O-] | inconclusive: 44.7 µM [inhibitor, partial curve, poor fit] | 
57 | Cc1cc(C(=O)NC2=NCCS2)cs1 |  | inactive: 20.8%
58 | CCc1c(C)sc(NC(=O)CSc2nc3c(c(C(F)(F)F)n2)CCc2ccccc2-3)c1C#N | inconclusive: 25.1 µM [inhibitor, partial curve, poor fit] | 
59 | CC(C)Oc1ccc2c(=O)c3cc(C(=O)O)ccc3oc2c1 |  | inactive: 34.8%
60 | Cc1cccc(C(=O)NNC(=O)c2ccc(Br)cc2)c1 |  | inactive: -15.5%
61 | CC(=O)Nc1ccc(C(=O)OCC(=O)c2cccc([N+](=O)[O-])c2)cc1 | inconclusive: 56.2 µM [inhibitor, partial curve, poor fit] | 
62 | CCCc1noc(-c2cn(C3CCN(C(=O)c4ccc(OC)c(OC)c4)CC3)nn2)n1 | inconclusive: 22.4 µM [inhibitor, partial curve, poor fit] | 
63 | COc1ccc(NC(=S)NNC(=O)COc2ccc(Cl)cc2Cl)cc1 | inconclusive: 35.5 µM [inhibitor, partial curve, poor fit] | 
64 | CCC(CC)C1=NN2C(=N)/C(=C/c3ccc(OC(=O)c4ccco4)cc3)C(=O)N=C2S1 |  | inactive: -14.4%
65 | COc1ccccc1Nc1sc(C(=O)c2ccc3c(c2)OCO3)c(N)c1S(=O)(=O)c1ccccc1 | inconclusive: 79.4 µM [inhibitor, partial curve, poor fit] | 
66 | COc1ccc(-c2sc3cc4c(cc3c2-c2ccc3c(c2)OCCO3)OCO4)cc1 |  | inactive: -1.96%
67 | COc1ccc(N2C(=O)c3ccc(NC(C)=O)cc3C2=O)cc1 | inconclusive: 11.2 µM [inhibitor, partial curve, poor fit] | 

Compounds above that have a COOH group (3):
Row | SMILES | Potency | activity change, negative = inhibition
6 | O=C(O)CN(Cc1ccc(Br)cc1)S(=O)(=O)c1ccc(Cl)cc1 |  | inactive: -17.3%
29 | CC(C)C[C@H](NC(=O)OC(C)(C)C)C(=O)N1CCC(C(=O)N[C@@H](Cc2c[nH]c3ccccc23)C(=O)O)CC1 | inconclusive: 50.1 µM [inhibitor, partial curve, poor fit] | 
59 | CC(C)Oc1ccc2c(=O)c3cc(C(=O)O)ccc3oc2c1 |  | inactive: 34.8%
